Here are results for two substances from article PMC3749136.

By UniProt entry, the sequences of proteins in these tests, tags left out. Where a name states a change or a piece, a line headed by the entry shows the natural chain unless it says otherwise.
UniProt P29597: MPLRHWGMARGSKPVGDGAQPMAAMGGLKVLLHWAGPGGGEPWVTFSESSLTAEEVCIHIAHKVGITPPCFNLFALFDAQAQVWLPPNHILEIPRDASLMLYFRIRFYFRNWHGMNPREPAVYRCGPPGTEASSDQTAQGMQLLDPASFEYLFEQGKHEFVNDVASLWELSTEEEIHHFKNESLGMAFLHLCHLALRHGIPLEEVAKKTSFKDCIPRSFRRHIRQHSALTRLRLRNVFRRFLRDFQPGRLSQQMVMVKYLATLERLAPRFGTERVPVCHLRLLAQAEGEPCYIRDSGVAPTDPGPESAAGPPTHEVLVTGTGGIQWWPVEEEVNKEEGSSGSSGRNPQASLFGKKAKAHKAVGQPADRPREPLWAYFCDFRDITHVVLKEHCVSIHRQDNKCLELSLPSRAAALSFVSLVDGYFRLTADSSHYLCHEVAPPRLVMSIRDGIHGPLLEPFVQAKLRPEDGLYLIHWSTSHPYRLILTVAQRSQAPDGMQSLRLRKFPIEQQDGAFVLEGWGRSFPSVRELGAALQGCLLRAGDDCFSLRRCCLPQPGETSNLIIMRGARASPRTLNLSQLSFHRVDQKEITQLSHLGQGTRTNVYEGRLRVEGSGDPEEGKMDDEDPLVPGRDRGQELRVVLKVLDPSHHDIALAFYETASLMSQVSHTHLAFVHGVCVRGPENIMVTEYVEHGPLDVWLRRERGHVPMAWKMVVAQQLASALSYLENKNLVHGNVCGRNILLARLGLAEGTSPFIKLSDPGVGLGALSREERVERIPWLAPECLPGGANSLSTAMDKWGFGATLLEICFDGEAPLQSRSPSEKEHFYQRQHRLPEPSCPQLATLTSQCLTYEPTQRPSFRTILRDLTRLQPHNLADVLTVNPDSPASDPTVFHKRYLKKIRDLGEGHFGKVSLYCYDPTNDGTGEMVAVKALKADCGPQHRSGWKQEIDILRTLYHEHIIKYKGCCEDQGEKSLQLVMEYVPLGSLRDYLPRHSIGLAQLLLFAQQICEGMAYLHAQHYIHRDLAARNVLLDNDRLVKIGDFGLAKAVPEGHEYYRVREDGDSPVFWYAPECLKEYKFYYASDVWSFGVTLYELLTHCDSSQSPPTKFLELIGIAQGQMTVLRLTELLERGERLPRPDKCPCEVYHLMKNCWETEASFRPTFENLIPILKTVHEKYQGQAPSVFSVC
UniProt P52333: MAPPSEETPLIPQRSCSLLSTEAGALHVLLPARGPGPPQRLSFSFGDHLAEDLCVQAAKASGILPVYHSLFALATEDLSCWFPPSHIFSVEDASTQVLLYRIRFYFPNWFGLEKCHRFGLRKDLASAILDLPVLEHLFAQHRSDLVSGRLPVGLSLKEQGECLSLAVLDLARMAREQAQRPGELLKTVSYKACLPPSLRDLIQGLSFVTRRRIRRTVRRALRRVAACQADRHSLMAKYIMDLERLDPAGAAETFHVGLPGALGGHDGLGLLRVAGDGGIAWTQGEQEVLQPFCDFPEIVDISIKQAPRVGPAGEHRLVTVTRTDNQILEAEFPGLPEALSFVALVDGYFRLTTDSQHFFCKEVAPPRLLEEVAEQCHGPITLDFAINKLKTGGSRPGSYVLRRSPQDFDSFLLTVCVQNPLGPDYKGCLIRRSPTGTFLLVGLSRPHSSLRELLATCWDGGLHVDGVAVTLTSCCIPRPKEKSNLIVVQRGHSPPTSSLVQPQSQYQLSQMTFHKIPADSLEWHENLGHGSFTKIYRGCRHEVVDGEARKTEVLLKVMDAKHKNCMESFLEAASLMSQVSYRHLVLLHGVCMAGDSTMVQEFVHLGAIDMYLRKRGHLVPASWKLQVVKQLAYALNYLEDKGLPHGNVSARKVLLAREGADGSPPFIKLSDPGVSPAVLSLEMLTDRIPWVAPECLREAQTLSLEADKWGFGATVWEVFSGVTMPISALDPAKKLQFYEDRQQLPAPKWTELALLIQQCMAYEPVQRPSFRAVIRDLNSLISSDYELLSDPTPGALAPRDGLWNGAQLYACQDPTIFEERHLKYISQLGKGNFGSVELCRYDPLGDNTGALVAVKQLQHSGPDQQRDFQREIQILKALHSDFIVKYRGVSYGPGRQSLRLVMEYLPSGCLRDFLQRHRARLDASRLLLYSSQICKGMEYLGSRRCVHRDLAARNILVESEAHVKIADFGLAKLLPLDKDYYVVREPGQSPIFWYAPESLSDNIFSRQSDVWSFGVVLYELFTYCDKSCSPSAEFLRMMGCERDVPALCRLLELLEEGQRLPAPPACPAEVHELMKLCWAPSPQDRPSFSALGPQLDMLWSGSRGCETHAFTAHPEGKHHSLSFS

Results are given in words; binding and its absence hold for the method and conditions named. A result given as binding can be weak or reduced; the word gives no strength.

This test has as its target T1, SOCS5 175–244 fragment (mouse) (UniProt O54928).
T1 sequence: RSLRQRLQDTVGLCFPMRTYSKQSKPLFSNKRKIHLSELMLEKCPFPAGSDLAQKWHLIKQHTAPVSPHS
In words: SPR; SOCS5 175-244 immobilised by amine coupling on a CM5 chip; JAK JH1 domains (62.5 nM to 2 µM) injected; 10 mM HEPES pH 8.0, 200 mM NaCl, 3.0 mM EDTA, 0.05% Tween20; steady-state fit, apparent KD; BIAcore3000; both purified.

In the case of “TYK2 JH1 domain (from UniProt P29597) (domain or fragment)”, the binding entry is “binds”.
To “JAK3 JH1 domain (from UniProt P52333) (domain or fragment)” belongs “binds”.
